Test results published in the supplement of paper PMC5949888.
Most values lie at the floor of the assay. Slopes are relative: functional sequences can read slightly below zero.

test system: Saccharomyces cerevisiae PS128 hsf1 delta, HSF1(1-493) fusion; experiment: growth estimate (transactivation domain function in HSF1 fusion, heat-shock survival) (a.u. (slope of normalised read count over time)); higher = stronger growth at 37°C, i.e. more transactivation activity; conditions: library: random library

Row | Substance | growth estimate
1 | PCWRGCCRRLRKRRPNDVPS | < -0.25
2 | PCYKRIQLF | < -0.25
3 | PCYPYNYATYMCPIGVTCSC | < -0.25
4 | PCYSTCILVMQ | < -0.25
5 | PDAHQTDLRHRRMRSPAPTR | < -0.25
6 | PDALATYPC | < -0.25
7 | PDDRLTH | < -0.25
8 | PDERVGRLTVGLEPTALSHP | < -0.25
9 | PDGSTMCDAGAAGD | < -0.25
10 | PDHGTIRIKEHRIQLNTAVA | < -0.25
11 | PDII | < -0.25
12 | PDIQAGAYPM | 0.114
13 | PDLHIEGFLPQNAMPGISTL | < -0.25
14 | PDLRGARPFRLFD | < -0.25
15 | PDLV | < -0.25
16 | PDPPDRMQHAGEVSWAITLT | < -0.25
17 | PDREQ | < -0.25
18 | PDTA | < -0.25
19 | PDTARL | < -0.25
20 | PDTGRRSHLGVRSLGDGRYE | < -0.25
21 | PDVRLENIAFFVTPTSHYHV | -0.113
22 | PDVRWAGDMHIGAPVVRTVM | < -0.25
23 | PDWFGPRCLVSPQLGGEHAL | < -0.25
24 | PDYKRRFTGSSLLRGLQTGS | -0.25
25 | PECECTA | < -0.25

Exported comma-delimited: part of the list above
Row,Substance,growth estimate
6,PDALATYPC,< -0.25
9,PDGSTMCDAGAAGD,< -0.25
17,PDREQ,< -0.25

Individual results from the entries so far:
growth estimate with PDAHQTDLRHRRMRSPAPTR is entered as < -0.25
growth estimate with PDERVGRLTVGLEPTALSHP is entered as < -0.25
growth estimate with PDWFGPRCLVSPQLGGEHAL is entered as < -0.25
growth estimate with PDREQ is entered as < -0.25
growth estimate with PDIQAGAYPM is entered as 0.114

Continuation.

Row | Substance | growth estimate
26 | PEG | < -0.25
27 | PEGFNQKCEAAKLPIKLVAV | < -0.25
28 | PEGILFLQLAQCKGGG | < -0.25
29 | PEGV | < -0.25
30 | PEHLCRSTRGPHSACNAIIE | < -0.25
31 | PEIA | < -0.25
32 | PEIGNWGL | < -0.25
33 | PELGSEAFVRLLATNREFSG | < -0.25
34 | PELRAATPPYYGPLDSESRA | < -0.25
35 | PENAITVTVVVFCLLTGGPP | < -0.25
36 | PENDNILLTGGLKSAVSHPR | < -0.25
37 | PEPVLCCYDG | < -0.25
38 | PERAVQGNVQLRQTNANDLY | < -0.25
39 | PERDSLAVGRPEVVIVS | < -0.25
40 | PERH | < -0.25
41 | PERLRI | < -0.25
42 | PERPRGCTPLTAR | < -0.25
43 | PESEILEPEAAYTNADQWPT | < -0.25
44 | PESYHDNNGNHAAPS | < -0.25
45 | PETRIVFENSGVTSGNAPFN | < -0.25
46 | PEVITYVVSRAPE | < -0.25
47 | PEWYLSHGGLVRGGP | < -0.25
48 | PEYIPVNAKAAFS | < -0.25
49 | PFATLNAQARTVTRVGIIG | < -0.25
50 | PFCARLGRISWVTPC | < -0.25

Row | Substance | growth estimate
51 | PFDVAGSLTRFPWDGRALSN | < -0.25
52 | PFDWGTVAR | -0.246
53 | PFHVSRLGSRARL | < -0.25
54 | PFI | < -0.25
55 | PFQPCSPVSYDV | < -0.25
56 | PFRCQ | < -0.25
57 | PFRGSNSRNSPLRSRAKRPR | < -0.25
58 | PFS | < -0.25
59 | PFSTLP | < -0.25
60 | PFSVL | < -0.25
61 | PFTHFID | < -0.25
62 | PFTNSSRERFV | -0.167
63 | PFVLVTQPPYRVSV | < -0.25
64 | PGA | < -0.25
65 | PGAGVSLNTHGTRDMYICAV | < -0.25
66 | PGAHILIG | < -0.25
67 | PGAPGLCPEELPPSLRNLWA | -0.19
68 | PGAVLLLTQIKFDASRGHPP | < -0.25
69 | PGAWLRHGLPTPDDFEVPIV | < -0.25
70 | PGCNESCLSCKIGPRLSGGA | < -0.25
71 | PGDAKGSLCLSCLTTSLPRA | < -0.25
72 | PGDSMKHLPDASKVCAESMV | < -0.25
73 | PGDTSPSCCG | < -0.25
74 | PGETGSGCSSFRERGSWDSG | < -0.25
75 | PGEVPFYYIHGVREIGPYHH | < -0.25

Row | Substance | growth estimate
76 | PGFVSPIVDSLSLHVGSVAP | < -0.25
77 | PGGANGAREYASLSLQGPVS | < -0.25
78 | PGGF | < -0.25
79 | PGGFAFPRLNLRSLKYHYVV | < -0.25
80 | PGGGRVGARRIARQVTGFVV | < -0.25
81 | PGGIGK | < -0.25
82 | PGGMSIQRDSVPRPSTSGNA | < -0.25
83 | PGGRFSGQFEQFIHPELWRM | < -0.25
84 | PGGSLYGHQRNSIEMVQFEQ | < -0.25
85 | PGGYVGSSSESGVDQHVSFS | < -0.25
86 | PGHF | < -0.25
87 | PGHWSHSLIRTRP | < -0.25
88 | PGIRESTKGRRNQLQNTPCH | < -0.25
89 | PGIRPFQSGVMSLA | < -0.25
90 | PGIRSQLHVNGVNYSLSTAT | -0.199
91 | PGKLVFVVMQVVDRLRHSKV | < -0.25
92 | PGLGSGEMSDRRTNP | < -0.25
93 | PGLKERWRYSLLDGARRAAR | < -0.25
94 | PGLSKFWQVLSSGILEMIMG | < -0.25
95 | PGLSMTDAF | < -0.25
96 | PGLTSPIARDRGLVIRYDSC | < -0.25
97 | PGLVLRANVLILYPL | < -0.25
98 | PGNQARGTRLPFGRLTKLSA | < -0.25
99 | PGNSTRTQVELGRVSLADDA | < -0.25
